# Small-molecule microarray binding calls

Data from the ROBIN nucleic acid binder screens, doi:10.1002/anie.202211358.

Oligonucleotides screened, 5′ to 3′:
T1: PreQ1 riboswitch RNA pseudoknot, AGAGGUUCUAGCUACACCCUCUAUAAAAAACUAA. From B. subtilis. About 170 hits among about 24,000 compounds.
T2: TPP riboswitch RNA three-way junction, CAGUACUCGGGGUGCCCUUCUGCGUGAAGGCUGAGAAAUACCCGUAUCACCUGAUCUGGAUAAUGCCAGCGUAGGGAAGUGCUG. About 160 hits among about 24,000 compounds.
T3: SAM-II riboswitch RNA pseudoknot, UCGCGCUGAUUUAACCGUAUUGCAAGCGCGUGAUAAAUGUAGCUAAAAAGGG. About 200 hits among about 21,000 compounds.

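Compounds were printed on reactive glass slides in duplicate spots, a dye-labelled oligonucleotide was laid over them, and the fluorescence left after washing was read. For the PreQ1, TPP and SAM-II riboswitches the laboratory earlier reported (doi:10.1038/s41467-019-09493-3) 1 µM RNA, 2 h, and a rule that included a mean Z-score above 3 (spot signal-to-noise against the whole library), a score well above that on a control array, and duplicate spots agreeing (coefficient of variation under 100). The data file gives only the calls; its cut-offs may differ, and compounds hitting several targets are kept. A missing hit is not proof of no binding, and a hit is not a measured affinity.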 “hit” means called a hit, “none” means screened and not called a hit. The compounds are a random part of those screened. A dash means that no call is listed here.

structure,T1,T2,T3
CC1(C(=O)N2CCCC(C(=O)CCc3ccccc3)C2)CCNCC1 (configuration not stated),none,none,none
OCC#Cc1csc(CN(Cc2ccccn2)CC2CCCO2)c1 (configuration not stated),none,none,none
OCC(CO)N1CCCC(CCc2ccc(F)c(F)c2)C1 (configuration not stated),none,none,none
COc1cccc(CNc2ccc(N3CCOCC3)c(C(=O)O)c2)c1OCc1ccccc1F,none,none,none
COc1cc(C2C(C#N)=C(N)Oc3c2c(=O)[nH]c2ccccc32)ccc1OC(C)C (configuration not stated),none,none,none
O=C(O)C(S)=Cc1ccc(I)cc1,none,none,none
Cc1ccc(S(=O)(=O)NCC(Nc2cccc(C)c2)c2ccccc2)cc1 (configuration not stated),none,none,-
CCOC(=O)c1c(C)n(C)c2ccc(OC)c(N)c12,none,none,none
O=C(CO)N[C@H]1CN(CC=Cc2ccc(F)cc2)C[C@@H]1C1CC1,none,none,none
Cc1sc(N)c(C(=O)c2ccccc2)c1C,none,none,none
CC(C)c1nc(CCN(C)C(=O)C2CC3(CCNCC3)CN2C)no1 (configuration not stated),none,none,none
CS(=O)(=O)c1ccccc1-c1ccc2ncnc(N)c2c1,none,none,none
N#CC1=C(N)N(c2ccccc2)C2=C(C(=O)OC2)C12C(=O)N(Cc1ccccc1)c1ccccc12 (configuration not stated),none,none,none
Cc1ncsc1CCC(=O)N1CCC(C(O)c2cccs2)CC1 (configuration not stated),none,none,none
COc1cccc(OCc2cc(C(=O)NCc3cccnc3N)no2)c1,none,none,none
Cc1ccc(N2C(N)=C(C#N)C(c3ccc(N(C)C)cc3)C3=C2CCCC3=O)cc1 (configuration not stated),none,none,none
CCCc1n[nH]c2c1C(c1ccc(F)cc1)C(C#N)=C(N)O2 (configuration not stated),none,none,none
OCc1ccnc(-c2ccc(O)cc2)c1,none,none,none
Cc1n[nH]c(C)c1C(N)C(=O)N1CCC(CCCc2ccccc2)CC1 (configuration not stated),hit,none,none
Cc1ccc2c(CNCc3ccccc3Cl)c(C(=O)O)[nH]c2c1,none,none,-
Cc1ccc2nccc(C(=O)N3CCC(C(O)Cc4ccccc4)CC3)c2c1 (configuration not stated),none,none,none
CC(C)(C)c1ccc(C(=O)N2CCN(C(=O)c3nonc3N)CC2)cc1,none,none,-
Nc1ncccc1CN1CCC(Oc2ccc(F)cc2)CC1,none,none,none
Nc1cc(Cl)cc(Cl)c1N,none,none,none
Cc1ncc(-c2cc(-c3ccc4c(c3)OCO4)nc(N)c2C#N)n1C,none,none,none
CNC=C1C=C(c2ccccc2)N(C)C1=S,none,none,none
OC[C@H]1CN(Cc2ccc(Cn3cccn3)cc2)C[C@H]1CN1CCOCC1,none,none,none
N#CCCNc1nncs1,none,none,none
CC(C)=CC(=O)N1CC[C@@H](c2ccc(F)cc2)[C@H](O)C1,none,none,none
N#CC1=C(N)OC2=C(C1c1ccccc1)S(=O)(=O)N(Cc1ccccc1)c1ccccc12 (configuration not stated),none,none,-
C=CCOc1ccc(C2C(C#N)=C(N)OC3=C2C(=O)CC(C)(C)C3)cc1 (configuration not stated),none,none,none
CCOc1ccccc1CNC1=NS(=O)(=O)C(c2ccccc2)=C1C,none,none,-
COC(=O)C1=C(C)OC(N)=C(C#N)C1c1ccc(Cl)cc1 (configuration not stated),none,none,none
CCCCOc1cccc(C2c3c(-c4cc(C)ccc4O)n[nH]c3C(=O)N2CCO)c1 (configuration not stated),none,none,-
O=c1[nH]c(=S)c2ncn(-c3ccccc3)c2[nH]1,none,none,none
COC(=O)c1cc(N)c2oc(C)nc2c1,none,none,none
c1ccc(-c2nc(-c3ccccn3)nc(-c3ccccn3)n2)nc1,none,none,none
C=CCN1CCN(c2ccncc2S(=O)(=O)N2CCN(C)CC2)CC1,none,none,none
COc1ccc(CN2CCC(N3CCN(CCO)CC3)CC2)c(OC)c1,none,none,none
Cc1ncc(C(=O)NC(c2ccccc2)c2nnc(N)s2)c(O)n1 (configuration not stated),none,none,none
Cc1cc(N2CCC(NC(c3ccccc3)c3ccncc3)CC2)nc(N)n1 (configuration not stated),none,none,none
CCN(CC)c1ccc(CNc2ccc3c(c2)ncn3C(C)(C)C)cc1,none,none,none
Clc1ccc(CNc2cc(-c3ccccc3)ncn2)cc1,none,none,-
COc1ccc(C2C(C#N)=C(N)Oc3cc(O)ccc32)cc1 (configuration not stated),none,none,none
O=c1cc(N2CCNCC2)cnn1CC1CCCO1 (configuration not stated),none,none,none
O=C(OCC(O)CNC12CC3CC(CC(C3)C1)C2)C12CC3CC(CC(C3)C1)C2 (configuration not stated),none,none,none
O=C1CCC(NC(=O)c2ccccc2)C(=O)N1 (configuration not stated),none,none,none
COc1cc(N2CCC(N3CCN(C)CC3)CC2)ccc1Nc1ncc(Cl)c(Nc2ccccc2S(=O)(=O)C(C)C)n1,none,none,none
N[C@@H]1CC[C@@H](NC(=O)CCn2c(=O)[nH]c3ccccc32)C1,none,none,none
CNC(=O)[C@@H]1C[C@H](N)CN1S(=O)(=O)c1c(Cl)nc2sccn12,none,none,none
CO[C@H]1CNC[C@@H]1Nc1cc(C)nc2c(C)c(C)nn12,none,none,none
COc1ccc2c(c1)CC(NCCc1nc(-c3cccnc3)no1)CC2 (configuration not stated),none,none,none
Cc1ccc(C)c(Nc2ncnc3c2nc2n3CCCC2)c1,none,none,-
COc1cc2c(cc1O)CC1c3c(cc(O)c(OC)c3-2)CCN1C (configuration not stated),none,none,none

The first 6 entries again:

structure	T1	T2	T3
CC1(C(=O)N2CCCC(C(=O)CCc3ccccc3)C2)CCNCC1 (configuration not stated)	none	none	none
OCC#Cc1csc(CN(Cc2ccccn2)CC2CCCO2)c1 (configuration not stated)	none	none	none
OCC(CO)N1CCCC(CCc2ccc(F)c(F)c2)C1 (configuration not stated)	none	none	none
COc1cccc(CNc2ccc(N3CCOCC3)c(C(=O)O)c2)c1OCc1ccccc1F	none	none	none
COc1cc(C2C(C#N)=C(N)Oc3c2c(=O)[nH]c2ccccc32)ccc1OC(C)C (configuration not stated)	none	none	none
O=C(O)C(S)=Cc1ccc(I)cc1	none	none	none